Compound in the assay: Cc1nc(Nc2ncc(C(=O)Nc3c(C)cccc3Cl)s2)cc(N2CCN(CCO)CC2)n1 [dasatinib]
The assay can be described thus: log2 fold change of tryptic peptide abundance, ligand vs vehicle (limited proteolysis) (log2 ratio); higher = more trypsin-susceptible (destabilized). To be noted: ligand concentration: 5 uM; sample: K562 cleared lysate.

Chains of the proteins cited; added tags and fusions are not shown. Lines headed by an entry give the natural chain unless they say otherwise; changes in a name come on top.
UniProt O95487: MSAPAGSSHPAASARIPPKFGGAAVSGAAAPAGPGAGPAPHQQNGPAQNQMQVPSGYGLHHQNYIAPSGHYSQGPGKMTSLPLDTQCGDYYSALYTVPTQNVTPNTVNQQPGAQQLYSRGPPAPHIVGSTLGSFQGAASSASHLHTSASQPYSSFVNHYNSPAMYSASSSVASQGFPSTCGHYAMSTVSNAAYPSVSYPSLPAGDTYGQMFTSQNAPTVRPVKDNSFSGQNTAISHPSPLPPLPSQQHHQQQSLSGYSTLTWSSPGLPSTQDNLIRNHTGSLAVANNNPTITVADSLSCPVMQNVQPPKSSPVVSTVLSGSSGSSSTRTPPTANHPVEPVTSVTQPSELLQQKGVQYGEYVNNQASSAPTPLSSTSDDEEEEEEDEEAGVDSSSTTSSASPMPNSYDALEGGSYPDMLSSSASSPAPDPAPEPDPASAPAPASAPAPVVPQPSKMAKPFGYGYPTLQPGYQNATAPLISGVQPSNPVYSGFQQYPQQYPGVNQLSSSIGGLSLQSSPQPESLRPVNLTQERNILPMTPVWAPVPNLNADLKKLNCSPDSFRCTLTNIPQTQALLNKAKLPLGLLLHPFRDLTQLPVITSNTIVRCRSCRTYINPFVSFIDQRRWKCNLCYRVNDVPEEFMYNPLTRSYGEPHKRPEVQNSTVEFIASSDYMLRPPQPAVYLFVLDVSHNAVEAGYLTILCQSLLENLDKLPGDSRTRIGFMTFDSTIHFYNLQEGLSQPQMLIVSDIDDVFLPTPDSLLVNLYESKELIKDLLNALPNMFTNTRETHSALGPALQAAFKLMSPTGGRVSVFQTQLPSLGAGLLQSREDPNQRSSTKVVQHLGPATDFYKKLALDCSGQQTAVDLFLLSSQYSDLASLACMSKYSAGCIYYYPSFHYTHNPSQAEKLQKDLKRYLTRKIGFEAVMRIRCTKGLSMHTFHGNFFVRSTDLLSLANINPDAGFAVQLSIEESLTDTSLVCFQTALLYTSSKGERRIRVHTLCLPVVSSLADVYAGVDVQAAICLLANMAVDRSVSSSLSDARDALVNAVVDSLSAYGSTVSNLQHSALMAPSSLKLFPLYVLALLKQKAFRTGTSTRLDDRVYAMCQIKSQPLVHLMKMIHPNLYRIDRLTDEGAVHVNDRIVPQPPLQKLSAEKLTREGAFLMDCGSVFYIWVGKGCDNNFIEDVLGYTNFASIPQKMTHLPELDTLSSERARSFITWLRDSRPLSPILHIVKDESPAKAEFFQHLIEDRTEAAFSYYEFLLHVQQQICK
UniProt O95620: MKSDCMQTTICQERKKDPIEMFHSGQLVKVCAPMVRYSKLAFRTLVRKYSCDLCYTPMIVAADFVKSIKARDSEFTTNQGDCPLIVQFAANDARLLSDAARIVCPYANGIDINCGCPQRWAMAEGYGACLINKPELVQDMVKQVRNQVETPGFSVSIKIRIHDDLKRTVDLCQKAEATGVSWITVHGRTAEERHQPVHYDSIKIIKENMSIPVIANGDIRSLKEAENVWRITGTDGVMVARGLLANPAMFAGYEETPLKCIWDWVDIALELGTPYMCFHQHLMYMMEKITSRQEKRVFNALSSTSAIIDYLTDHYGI
UniProt O94955, whole entry: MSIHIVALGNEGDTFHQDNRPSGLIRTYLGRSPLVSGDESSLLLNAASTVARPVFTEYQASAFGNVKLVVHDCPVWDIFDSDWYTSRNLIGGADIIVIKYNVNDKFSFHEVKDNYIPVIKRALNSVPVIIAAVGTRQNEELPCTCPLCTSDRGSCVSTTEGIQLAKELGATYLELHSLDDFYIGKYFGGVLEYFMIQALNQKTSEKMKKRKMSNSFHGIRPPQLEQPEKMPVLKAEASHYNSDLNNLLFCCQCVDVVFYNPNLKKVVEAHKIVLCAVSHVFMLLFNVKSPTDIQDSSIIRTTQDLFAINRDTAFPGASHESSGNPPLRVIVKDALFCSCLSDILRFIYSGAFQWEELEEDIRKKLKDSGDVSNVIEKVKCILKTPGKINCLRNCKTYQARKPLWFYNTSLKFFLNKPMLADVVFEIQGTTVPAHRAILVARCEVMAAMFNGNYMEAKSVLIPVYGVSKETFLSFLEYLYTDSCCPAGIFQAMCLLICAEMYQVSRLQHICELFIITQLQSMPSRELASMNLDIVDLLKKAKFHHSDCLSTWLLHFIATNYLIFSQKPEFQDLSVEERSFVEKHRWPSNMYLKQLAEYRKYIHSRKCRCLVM
UniProt O75575: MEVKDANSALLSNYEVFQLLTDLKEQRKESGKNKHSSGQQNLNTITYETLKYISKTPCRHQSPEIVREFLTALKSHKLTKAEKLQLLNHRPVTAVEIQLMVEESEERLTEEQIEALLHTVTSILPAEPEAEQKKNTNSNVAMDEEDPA
UniProt O96028: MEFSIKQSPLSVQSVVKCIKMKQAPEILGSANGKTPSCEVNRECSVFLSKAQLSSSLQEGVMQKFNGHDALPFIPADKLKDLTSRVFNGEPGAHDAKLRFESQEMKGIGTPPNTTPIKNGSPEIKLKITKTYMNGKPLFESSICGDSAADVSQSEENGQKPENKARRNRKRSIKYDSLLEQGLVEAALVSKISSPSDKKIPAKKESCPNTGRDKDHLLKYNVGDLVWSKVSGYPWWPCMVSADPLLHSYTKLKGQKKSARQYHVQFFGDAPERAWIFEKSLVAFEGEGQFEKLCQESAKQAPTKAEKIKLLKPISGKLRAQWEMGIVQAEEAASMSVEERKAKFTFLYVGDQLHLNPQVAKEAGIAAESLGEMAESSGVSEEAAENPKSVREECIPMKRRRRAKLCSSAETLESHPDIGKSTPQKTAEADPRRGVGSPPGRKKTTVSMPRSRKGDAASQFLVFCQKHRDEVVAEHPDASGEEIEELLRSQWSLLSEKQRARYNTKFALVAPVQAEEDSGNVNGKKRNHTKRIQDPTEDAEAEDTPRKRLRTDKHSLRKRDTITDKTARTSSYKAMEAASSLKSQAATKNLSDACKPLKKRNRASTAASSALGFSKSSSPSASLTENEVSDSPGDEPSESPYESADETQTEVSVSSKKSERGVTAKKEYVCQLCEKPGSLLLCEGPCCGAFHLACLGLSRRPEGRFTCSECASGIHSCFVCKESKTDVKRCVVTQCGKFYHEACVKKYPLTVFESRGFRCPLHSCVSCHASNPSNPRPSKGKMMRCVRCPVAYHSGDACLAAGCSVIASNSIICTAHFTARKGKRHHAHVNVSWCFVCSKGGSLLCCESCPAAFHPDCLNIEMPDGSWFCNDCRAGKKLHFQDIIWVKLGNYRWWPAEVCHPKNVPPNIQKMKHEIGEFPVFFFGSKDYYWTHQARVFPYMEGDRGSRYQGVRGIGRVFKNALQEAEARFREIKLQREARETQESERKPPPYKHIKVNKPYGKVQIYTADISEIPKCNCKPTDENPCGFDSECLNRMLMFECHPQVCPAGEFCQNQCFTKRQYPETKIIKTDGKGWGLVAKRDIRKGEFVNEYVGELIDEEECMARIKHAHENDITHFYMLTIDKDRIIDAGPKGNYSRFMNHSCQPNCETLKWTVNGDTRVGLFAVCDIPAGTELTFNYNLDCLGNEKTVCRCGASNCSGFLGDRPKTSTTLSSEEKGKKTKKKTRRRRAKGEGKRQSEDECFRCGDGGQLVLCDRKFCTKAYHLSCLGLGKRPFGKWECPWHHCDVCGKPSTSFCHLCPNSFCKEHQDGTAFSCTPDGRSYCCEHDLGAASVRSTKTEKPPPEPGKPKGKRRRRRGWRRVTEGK
UniProt O95521: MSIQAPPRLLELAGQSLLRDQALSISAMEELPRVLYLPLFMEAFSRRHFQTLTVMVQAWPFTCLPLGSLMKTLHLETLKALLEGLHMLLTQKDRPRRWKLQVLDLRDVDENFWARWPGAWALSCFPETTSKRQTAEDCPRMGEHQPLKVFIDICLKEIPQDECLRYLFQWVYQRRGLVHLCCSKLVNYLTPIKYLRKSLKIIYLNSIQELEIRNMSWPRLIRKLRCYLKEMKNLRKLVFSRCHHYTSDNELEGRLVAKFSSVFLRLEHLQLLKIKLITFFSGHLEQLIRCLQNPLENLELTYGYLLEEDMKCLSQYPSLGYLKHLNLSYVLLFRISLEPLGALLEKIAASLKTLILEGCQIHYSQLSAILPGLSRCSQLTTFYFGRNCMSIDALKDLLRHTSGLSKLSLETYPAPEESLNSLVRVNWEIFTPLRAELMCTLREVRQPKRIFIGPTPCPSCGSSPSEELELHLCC
UniProt O95562: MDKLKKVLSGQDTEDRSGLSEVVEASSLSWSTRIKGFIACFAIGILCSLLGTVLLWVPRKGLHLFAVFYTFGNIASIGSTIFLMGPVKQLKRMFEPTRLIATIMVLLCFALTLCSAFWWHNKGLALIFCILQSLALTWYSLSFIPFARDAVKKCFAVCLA
UniProt O75459: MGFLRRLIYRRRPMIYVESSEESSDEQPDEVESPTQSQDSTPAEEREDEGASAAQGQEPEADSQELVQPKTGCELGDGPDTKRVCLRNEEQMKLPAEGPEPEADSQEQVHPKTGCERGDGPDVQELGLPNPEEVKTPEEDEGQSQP
UniProt O95801: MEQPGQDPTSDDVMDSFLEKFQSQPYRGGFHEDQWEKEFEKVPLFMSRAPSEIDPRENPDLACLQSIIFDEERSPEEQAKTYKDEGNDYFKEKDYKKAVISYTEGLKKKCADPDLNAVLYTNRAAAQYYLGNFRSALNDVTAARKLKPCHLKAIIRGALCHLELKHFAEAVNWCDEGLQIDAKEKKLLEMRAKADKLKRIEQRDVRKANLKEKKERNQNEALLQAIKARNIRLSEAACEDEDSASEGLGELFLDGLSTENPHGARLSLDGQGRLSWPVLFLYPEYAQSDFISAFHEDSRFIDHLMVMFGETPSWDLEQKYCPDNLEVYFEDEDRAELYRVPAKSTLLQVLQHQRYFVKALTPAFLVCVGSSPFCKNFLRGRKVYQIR
UniProt O96013: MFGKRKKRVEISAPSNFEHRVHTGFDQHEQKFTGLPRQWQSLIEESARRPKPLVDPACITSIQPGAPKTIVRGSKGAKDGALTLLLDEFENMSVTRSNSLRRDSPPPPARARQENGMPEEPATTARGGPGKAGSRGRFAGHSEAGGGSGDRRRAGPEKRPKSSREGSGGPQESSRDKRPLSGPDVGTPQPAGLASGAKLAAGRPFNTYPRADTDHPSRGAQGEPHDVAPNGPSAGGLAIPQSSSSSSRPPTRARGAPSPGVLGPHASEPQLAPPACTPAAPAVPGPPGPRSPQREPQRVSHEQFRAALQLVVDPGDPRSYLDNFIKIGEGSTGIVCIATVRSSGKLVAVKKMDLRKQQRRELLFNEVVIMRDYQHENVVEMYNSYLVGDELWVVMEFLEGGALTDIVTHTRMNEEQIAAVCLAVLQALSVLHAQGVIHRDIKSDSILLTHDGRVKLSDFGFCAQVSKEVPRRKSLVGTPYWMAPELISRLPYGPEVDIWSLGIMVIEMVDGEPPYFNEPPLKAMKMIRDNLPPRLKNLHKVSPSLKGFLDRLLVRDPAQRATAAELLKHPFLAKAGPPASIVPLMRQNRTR
UniProt O95197: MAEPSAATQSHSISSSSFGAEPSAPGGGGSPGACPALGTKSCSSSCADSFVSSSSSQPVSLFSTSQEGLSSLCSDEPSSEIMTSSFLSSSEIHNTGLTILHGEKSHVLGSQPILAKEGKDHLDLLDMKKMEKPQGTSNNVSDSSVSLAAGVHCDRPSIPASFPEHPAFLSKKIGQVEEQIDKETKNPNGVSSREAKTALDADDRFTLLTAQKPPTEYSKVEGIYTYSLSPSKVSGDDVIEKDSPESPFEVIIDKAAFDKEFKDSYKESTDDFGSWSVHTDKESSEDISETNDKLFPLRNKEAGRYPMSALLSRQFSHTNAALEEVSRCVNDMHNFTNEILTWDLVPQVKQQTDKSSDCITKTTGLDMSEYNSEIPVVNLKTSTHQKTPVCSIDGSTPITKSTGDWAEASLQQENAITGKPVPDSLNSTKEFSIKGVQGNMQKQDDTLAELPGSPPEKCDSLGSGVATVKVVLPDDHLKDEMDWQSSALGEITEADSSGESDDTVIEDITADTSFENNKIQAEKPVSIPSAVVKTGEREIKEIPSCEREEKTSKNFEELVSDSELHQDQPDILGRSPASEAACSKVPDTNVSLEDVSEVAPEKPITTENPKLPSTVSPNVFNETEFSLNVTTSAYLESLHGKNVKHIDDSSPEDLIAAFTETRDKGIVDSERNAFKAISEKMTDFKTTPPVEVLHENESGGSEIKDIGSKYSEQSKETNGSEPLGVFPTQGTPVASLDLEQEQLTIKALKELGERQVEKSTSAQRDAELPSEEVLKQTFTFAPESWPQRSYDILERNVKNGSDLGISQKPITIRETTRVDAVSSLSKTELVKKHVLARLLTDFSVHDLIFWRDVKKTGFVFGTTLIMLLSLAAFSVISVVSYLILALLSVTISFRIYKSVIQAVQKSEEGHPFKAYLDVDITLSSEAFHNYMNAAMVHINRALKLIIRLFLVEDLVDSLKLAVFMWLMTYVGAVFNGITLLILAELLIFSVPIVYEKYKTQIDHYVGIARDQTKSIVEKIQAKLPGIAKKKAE

Some of the results follow. Small differences around the control level are noise.

Take “MED24 (peptide sequence: AEPTVTNILK, peptide start residue: 413) (UniProt O75448)”: the log2 fold change was -0.0486.

With “SEC24B (peptide sequence: IVPQPPLQK, peptide start residue: 1139) (UniProt O95487)”, the log2 fold change was -0.237.

With “DUS4L (peptide sequence: KKDPIEMFHSGQLVK, peptide start residue: 15) (UniProt O95620)”, the log2 fold change was found to be 0.409.

As to “PPP1R3D (peptide sequence: GPSSAVLPSALGSR, peptide start residue: 4) (UniProt O95685)”, the log2 fold change came out at 0.0571.

Take “MBD3 (peptide sequence: GKPDLNTALPVR, peptide start residue: 91) (UniProt O95983)”: the log2 fold change was -0.28.

In the case of “UniProt O95551 (peptide sequence: SLDLLGLEK, peptide start residue: 333)”, the log2 fold change is -0.181.

With “AP1G2 (peptide sequence: GYALTALMK, peptide start residue: 525) (UniProt O75843)”, the log2 fold change was determined as 0.359.

Turning to “TNKS (peptide sequence: HGLALPEGDGSRDPPDRPR, peptide start residue: 61) (UniProt O95271)”, the log2 fold change turned out to be 0.179.

“SNCG (peptide sequence: EQANAVSEAVVSSVNTVATK, peptide start residue: 61) (UniProt O76070)”: the log2 fold change stood at 0.7.

For “RHOBTB3 (peptide sequence: NLIGGADIIVIK, peptide start residue: 88) (UniProt O94955)”, the log2 fold change was 0.215.

In the case of “CRCP (peptide sequence: HSSGQQNLNTITYETLK, peptide start residue: 35) (UniProt O75575)”, the log2 fold change was determined as 0.0811.

As for “UniProt O96028 (peptide sequence: LRFESQEMK, peptide start residue: 98)”, the log2 fold change amounted to 0.415.

On to “UniProt O95521 (peptide sequence: WKLQVLDLR, peptide start residue: 117)”, for which the log2 fold change was -0.166.

For “SFT2D2 (peptide sequence: VLSGQDTEDR, peptide start residue: 7) (UniProt O95562)”, the log2 fold change was found to be 0.0474.

Regarding “PAGE1 (peptide sequence: VCLRNEEQMK, peptide start residue: 84) (UniProt O75459)”, the log2 fold change was 0.141.

On to “YIF1A (peptide sequence: AYHSGYGAHGSK, peptide start residue: 2) (UniProt O95070)”, for which the log2 fold change is -0.0271.

Consider “TTC4 (peptide sequence: KCADPDLNAVLYTNR, peptide start residue: 109) (UniProt O95801)”, for which the log2 fold change was 0.0988.

For the target “MPDZ (peptide sequence: LTIHAENPDSQAVPSAAGAASGEKK, peptide start residue: 1558) (UniProt O75970)”, the log2 fold change is -0.43.

Turning to “PAK4 (peptide sequence: DIKSDSILLTHDGR, peptide start residue: 440) (UniProt O96013)”, the log2 fold change was -0.381.

Consider “UniProt O94927 (peptide sequence: TVGVLVSQR, peptide start residue: 300)”, for which the log2 fold change was -0.279.

For “PGM3 (peptide sequence: AFVRPSGTEDVVR, peptide start residue: 493) (UniProt O95394)”, the log2 fold change was -0.171.

Consider “ETHE1 (peptide sequence: TDFQQGCAK, peptide start residue: 164) (UniProt O95571)”, for which the log2 fold change was -0.255.

For “RTN3 (peptide sequence: DAELPSEEVLK, peptide start residue: 765) (UniProt O95197)”, the log2 fold change was -0.108.

With “SRP72 (peptide sequence: KTNLSAVVAAQSNWEK, peptide start residue: 148) (UniProt O76094)”, the log2 fold change was 0.147.

Consider “IDH1 (peptide sequence: CATITPDEK, peptide start residue: 73) (UniProt O75874)”, for which the log2 fold change is 0.171.

As to “UniProt O95478 (peptide sequence: AGKWEVPLPK, peptide start residue: 114)”, the log2 fold change was -0.333.

With “UniProt O94953 (peptide sequence: EAEGAEEDGRGK, peptide start residue: 433)”, the log2 fold change came out at 1.1.

In the case of “UniProt O75526 (peptide sequence: VEADRPGK, peptide start residue: 2)”, the log2 fold change worked out at 0.0978.

As for “CCNB2 (peptide sequence: EMETLILK, peptide start residue: 248) (UniProt O95067)”, the log2 fold change was -0.992.

These data come from the supplement of paper PMC12819154, “High-throughput peptide-centric local stability assay extends protein–ligand identification to membrane proteins, tissues and bacteria” (Nature Structural & Molecular Biology, 2025).
